From US10613104B2, “Assay to determine anticoagulants in blood or blood plasma” (ZAFENA AB, priority 2014, dated 2020)

Test system: prothrombin time (PT) of control plasma NKP
Experiment: 20 μL and 5 μL PT methods with reagent P161 at various added CaCl2, NKP + 500 μg/L apixaban
Assay type: biochemical
Details: level at which ratio reaches 1.104 (2*SD)
Experimental: With each reagent three samples were analyzed by the two PT methods of the anticoagulant assay, the 20 μL-method and the 5 μL-method. Two of the samples were reference samples, the control plasmas NKP and ZAP, with established INR values of 1.00 and 2.50, respectively.

Work on `COc1ccc(-n2nc(C(N)=O)c3c2C(=O)N(c2ccc(N4CCCCC4=O)cc2)CC3)cc1` [apixaban] yielded an apixaban detection limit (reagent P161, added Ca2+ 16 mM) of 38 µg/L, an apixaban detection limit (reagent P161, added Ca2+ 24 mM) of 39 µg/L and an apixaban detection limit (reagent P161, added Ca2+ 32 mM) of 41 µg/L.
